Experimental data as given in patent publication US7897637B2, “Methods of using flavonoids to enhance memory” (The Salk Institute for Biological Studies, priority 2006, dated 2011).
Some results were stated once for a whole list of compounds, not compound by compound. Some compounds share one range, which may span the group rather than tell each member.

Test system: PC12 cells
Assay: PC12 cell differentiation assay (neurite outgrowth)
Format: cell-based
Settings: text summary of Example 1, concentration not stated
Experimental: Four trihydroxyflavones (THF) and three dihydroxyflavones (DHF) which lack one or two, respectively, of the hydroxyl groups found in fisetin were tested for their ability to induce the differentiation of PC12 cells. Differentiation was assessed by scoring neurite outgrowth (Sagara et al., J. Neurochem., 90:1144-1155, 2004). […]
PC12 cells in N2 medium were treated with flavonoids for 24 hours at which time the cells were scored for the presence of neurites. PC12 cells produce neurites much more rapidly when treated in N2 medium than when treated in regular growth medium (Kimura et al., J. Cell Biol., 116:777-83, 1992). For each treatment, 100 cells in each of three separate fields were counted. Cells were scored positive if one or more neurites>1 cell body diameter in length were observed.

| Structure (SMILES) | differentiation of the cells promoted |
| --- | --- |
| O=c1c(O)c(-c2ccc(O)cc2)oc2cc(O)ccc12 [3,7,4′-THF, 3,4′,7-trihydroxyflavone] | 75-80% |
| O=c1c(O)c(-c2ccc(O)c(O)c2)oc2ccccc12 [3,3′,4′-THF, 3,3′,4′-trihydroxyflavone] | 75-80% |
| O=c1c(O)c(-c2ccc(O)c(O)c2)oc2cc(O)ccc12 [fisetin, 3,3′,4′,7-tetrahydroxyflavone] | 75-80% |
